Results are given in words; binding and its absence hold for the method and conditions named. Some results given as binding are weak or reduced against the parent protein; the word gives no strength.
Biological target: recombinant Oryza australiensis Rubisco activase (RCA), beta (short) isoform (Oryza australiensis) (UniProt P93431)
Assay: native gel, concentration-dependent self-oligomerisation

Protein sequences, listed by entry. Tags and fused reporters are not part of them. Lines headed by an entry give the natural chain unless they say otherwise; changes in a name come on top.
UniProt P93431: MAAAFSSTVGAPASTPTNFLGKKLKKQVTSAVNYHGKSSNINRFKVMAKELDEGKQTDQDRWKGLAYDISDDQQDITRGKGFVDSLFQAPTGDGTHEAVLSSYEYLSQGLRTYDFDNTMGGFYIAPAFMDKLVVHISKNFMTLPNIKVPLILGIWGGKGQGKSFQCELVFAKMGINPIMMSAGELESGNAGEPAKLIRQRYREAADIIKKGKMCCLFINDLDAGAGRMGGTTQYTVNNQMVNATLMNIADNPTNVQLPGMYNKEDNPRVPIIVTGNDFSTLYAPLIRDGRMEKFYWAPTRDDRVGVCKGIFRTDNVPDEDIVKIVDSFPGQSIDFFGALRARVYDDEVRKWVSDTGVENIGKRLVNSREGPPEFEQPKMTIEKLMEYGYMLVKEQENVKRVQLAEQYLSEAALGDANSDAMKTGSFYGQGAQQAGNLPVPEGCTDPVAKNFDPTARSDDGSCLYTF

binding: binds
B1: recombinant Oryza australiensis Rubisco activase (RCA), beta (short) isoform (enzyme)
chain: MAKELDEDKQTDQDKWKGLAYDISDDQQDITRGKGLVDSLFQAPMGDGTHEAVLSSYEYLSQGLKMLDNTMGGFYIAPAFMDKLVVHISKNFMALPNIKVPLILGIWGGKGQGKSFQCELVFSKMGINPIMMSAGELESGNAGEPAKLIRQRYREAADIIKKGKMCCLFINDLDAGAGRMGGTTQYTVNNQMVNATLMNIADNPTNVQLPGMYNKEDNPRVPIIVTGNDFSTLYAPLIRDGRMEKFYWAPTRDDRVGVCKGIFRTDNVPDEDIVKIVDSFPGQSIDFFGALRARVYDDEVRKWVSDTGVENIGKKLVNSREGPPEFEQPKMTIDKLMEYGHMLVREQENVKRVQLADKYLSEAALGDANSDAMKTGSFYGAAPSS

Source: patent publication US20180037904A1
